PubChem BioAssay AID652272, Drosophila RNAi Screening Center – 2013

Purpose: 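Genome-wide knock-down search for components of Hedgehog signalling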 (primary screen)
System: Drosophila clone 8 (Cl8) cells
Knock-down reagent: long dsRNA against Drosophila genes
Detection: 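Plate reader light from a firefly reporter under a ptc promoter fragment that responds to Hedgehog, with Renilla light as transfection reference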
Reading the numbers: firefly Hh reporter signal: higher = more ptc reporter light; Renilla reference signal: higher = more Renilla control light
Active means: 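Called a hit if the two-replicate mean z-score lies below -2 or above +3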
Meaning of the calls: active = hit: reporter lowered or raised; inactive = not a hit
The screen tested about 21,000 reagents; below is an unselected part of those that have a named target and a result. In the full data, 503 (2.4%) are marked active. 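Raw plate light values, not normalised; calls rest on replicate z-scores that were not deposited; hits include reporter decreases as well as increases.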 A plus sign joins genes that one reagent is predicted to hit. The record does not give: the amount of reagent, the time to read-out.

gene,dsRNA,"firefly Hh reporter signal, replicate 1","firefly Hh reporter signal, replicate 2","firefly Hh reporter signal, replicate 3","Renilla reference signal, replicate 1","Renilla reference signal, replicate 2",call
Zip99C,DRSC16320,1.45e5,79696,,3312,2132,inactive
CG4927,DRSC06903,65671,44982,,2156,3365,inactive
Obp22a,DRSC00088,6.23e5,2.60e5,,32880,10497,inactive
CG17549,DRSC02625,1.12e5,82410,,5584,3797,inactive
Rlip,DRSC16828,5.70e5,1.02e5,,26919,2980,inactive
Nmnat,DRSC14644,5.32e5,1.15e5,,26593,3846,inactive
CG16879 (retired record),DRSC01918,1.88e5,8.94e5,85200,4825,49424,inactive
yellow-c + CIAPIN1,DRSC01898,74704,65677,,2234,5783,inactive
ppk15,DRSC14733,3.77e5,55505,,28704,1800,inactive
CG14384,DRSC14842,80658,73019,,1443,1602,inactive
endos,DRSC10658,91590,75445,,3696,2371,inactive
Daxx,DRSC03255,94867,82890,,4279,2788,inactive
ATPsynCF6L,DRSC08232,78244,65642,,7299,4897,inactive
Lcp65Ab2 + Lcp65Ab1,DRSC10340,58572,55937,,6132,4149,inactive
Lcp65Ab2 + Lcp65Ab1,DRSC10343,52709,41517,,5218,3290,inactive
WASp,DRSC15032,1.22e5,1.51e5,,3329,4045,inactive
CG31388,DRSC15254,1.74e5,1.19e5,,7041,4683,inactive
CG4914,DRSC10458,1.00e5,,,3271,2804,inactive
Gpdh1,DRSC03336,1.73e5,96384,,5940,4673,inactive
CG10366,DRSC02046,1.10e5,83724,,4427,3584,inactive
Not1,DRSC06787,50456,29600,,2513,4906,active
Not1,DRSC06794,18409,18336,,1225,1264,inactive
CG42493,DRSC05309,1.75e5,2.41e5,,4374,10729,inactive
jumu,DRSC16651,49745,58331,,1814,1797,inactive
Gart,DRSC03481,1.06e5,81914,,2456,6992,inactive
CG11961,DRSC06099,1.37e5,1.01e5,,6688,4089,inactive
CG13639,DRSC14638,6.53e5,1.17e5,,32551,3446,inactive
beta4GalNAcTA,DRSC05944,7.66e5,1.39e5,,6043,6043,inactive
sub,DRSC06125,55706,54902,,3536,2665,inactive
Ugt37C2,DRSC02247,84617,55015,,2235,5209,inactive
mu2,DRSC08726,1.59e5,1.26e5,,7465,5637,inactive
UQCR-14,DRSC19870,1.29e5,3.74e5,,4038,12220,inactive
Dop2R,DRSC20683,1.18e5,2.93e5,,3837,11706,inactive
Dop2R,DRSC20686,1.32e5,3.69e5,,3953,14245,inactive
Rtf1,DRSC04085,1.16e5,98903,,3431,2642,inactive
Boot,DRSC06412,83520,38093,,2530,3926,inactive
CG13545,DRSC04187,1.33e5,74876,,3563,5194,inactive
CG15537,DRSC15073,1.12e5,1.30e5,,1968,2585,inactive
CG13409,DRSC14585,7.96e5,1.61e5,,46314,11634,inactive
Buffy,DRSC05957,1.03e5,51712,,2160,3808,inactive
CG11380,DRSC18632,57013,41160,,4067,1920,active
teq,DRSC10298,44851,45533,,3789,1264,inactive
teq,DRSC11301,38720,56514,,3894,1842,inactive
teq,DRSC11302,62131,59082,,4739,3098,inactive
CG12355,DRSC09381,4.90e5,1.03e5,,4752,4752,inactive
CG12355,DRSC09883,81148,,,4215,2309,inactive
CG7536,DRSC20050,1.11e5,68522,,2672,2059,inactive
Mcm7,DRSC11219,57313,51158,,2513,2048,inactive
CG11309,DRSC11650,1.03e5,65960,,3270,1639,inactive
tzn,DRSC11755,1.35e5,57958,,5654,2384,inactive
Snp,DRSC04524,1.01e5,76784,,2489,6796,inactive
alpha-Est2,DRSC12614,56690,87362,,1437,2434,inactive
dar1,DRSC08049,88347,3.02e5,,2787,11094,inactive
dar1,DRSC08233,91898,53400,,2615,4577,inactive
Pcp,DRSC03395,1.64e5,83929,,4632,7831,inactive
CR43359,DRSC03744,1.20e5,3.19e5,,2569,13688,inactive
CG5989,DRSC10565,83737,69648,,4124,3080,inactive

Just “Renilla reference signal, replicate 2”, for 9 of the entries above:
teq [DRSC10298]: 1264
teq [DRSC11301]: 1842
teq [DRSC11302]: 3098
CG12355 [DRSC09381]: 4752
CG12355 [DRSC09883]: 2309
CG7536 [DRSC20050]: 2059
Mcm7 [DRSC11219]: 2048
CG11309 [DRSC11650]: 1639
tzn [DRSC11755]: 2384
